Results are given in words; binding and its absence hold for the method and conditions named. Binding seen in cells or lysates may run through a third protein. Some results given as binding are weak or reduced against the parent protein; the word gives no strength. Sequences can lack the tags named with a protein.

The chains behind the UniProt entries cited, without tags or fusion partners.
UniProt P38398: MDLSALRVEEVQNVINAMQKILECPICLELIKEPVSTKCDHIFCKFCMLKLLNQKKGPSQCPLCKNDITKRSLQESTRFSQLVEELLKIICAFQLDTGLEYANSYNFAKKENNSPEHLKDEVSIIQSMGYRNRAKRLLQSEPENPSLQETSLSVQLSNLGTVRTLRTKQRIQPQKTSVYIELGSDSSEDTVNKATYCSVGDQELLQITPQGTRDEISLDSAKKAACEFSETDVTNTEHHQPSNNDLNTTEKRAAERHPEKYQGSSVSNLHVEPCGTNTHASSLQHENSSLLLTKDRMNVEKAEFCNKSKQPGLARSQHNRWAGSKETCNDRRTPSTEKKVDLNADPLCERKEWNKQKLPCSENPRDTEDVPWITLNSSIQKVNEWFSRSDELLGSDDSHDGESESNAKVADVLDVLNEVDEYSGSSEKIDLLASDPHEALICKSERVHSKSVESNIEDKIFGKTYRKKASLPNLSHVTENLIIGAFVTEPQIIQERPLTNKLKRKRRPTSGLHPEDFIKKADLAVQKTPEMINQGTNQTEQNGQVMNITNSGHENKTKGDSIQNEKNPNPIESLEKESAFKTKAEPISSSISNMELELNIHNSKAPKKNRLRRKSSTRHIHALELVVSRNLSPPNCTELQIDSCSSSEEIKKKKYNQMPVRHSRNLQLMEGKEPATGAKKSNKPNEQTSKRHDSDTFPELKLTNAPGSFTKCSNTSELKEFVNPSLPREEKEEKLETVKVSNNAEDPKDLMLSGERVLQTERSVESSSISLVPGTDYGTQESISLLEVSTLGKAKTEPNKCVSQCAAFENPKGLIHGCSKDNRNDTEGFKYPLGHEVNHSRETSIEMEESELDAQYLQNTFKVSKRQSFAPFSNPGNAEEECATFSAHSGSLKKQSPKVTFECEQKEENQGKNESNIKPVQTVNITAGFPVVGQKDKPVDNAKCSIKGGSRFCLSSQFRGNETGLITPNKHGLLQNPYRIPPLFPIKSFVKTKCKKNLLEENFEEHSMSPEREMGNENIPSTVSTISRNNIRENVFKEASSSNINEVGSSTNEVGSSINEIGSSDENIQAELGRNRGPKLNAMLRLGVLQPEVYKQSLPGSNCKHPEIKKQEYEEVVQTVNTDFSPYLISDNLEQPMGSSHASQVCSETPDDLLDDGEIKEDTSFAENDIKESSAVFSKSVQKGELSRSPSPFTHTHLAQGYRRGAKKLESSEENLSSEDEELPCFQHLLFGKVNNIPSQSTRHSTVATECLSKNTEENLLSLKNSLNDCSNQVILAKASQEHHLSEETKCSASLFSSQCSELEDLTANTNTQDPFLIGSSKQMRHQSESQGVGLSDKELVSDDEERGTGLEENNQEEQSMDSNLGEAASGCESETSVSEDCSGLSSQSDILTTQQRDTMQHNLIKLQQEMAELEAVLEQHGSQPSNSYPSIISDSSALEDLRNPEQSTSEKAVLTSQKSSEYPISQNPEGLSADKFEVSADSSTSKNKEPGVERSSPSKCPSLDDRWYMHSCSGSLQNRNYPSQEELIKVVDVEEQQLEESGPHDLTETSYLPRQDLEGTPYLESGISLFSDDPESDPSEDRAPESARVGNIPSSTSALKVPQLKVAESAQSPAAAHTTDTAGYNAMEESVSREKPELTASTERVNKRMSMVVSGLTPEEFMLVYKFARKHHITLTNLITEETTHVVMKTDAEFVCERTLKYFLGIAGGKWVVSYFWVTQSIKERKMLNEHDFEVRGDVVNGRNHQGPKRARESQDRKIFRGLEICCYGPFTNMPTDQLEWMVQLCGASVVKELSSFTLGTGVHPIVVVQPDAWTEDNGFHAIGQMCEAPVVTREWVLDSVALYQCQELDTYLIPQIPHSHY

For assay [1], the target named is CtIP (residues 45-897), human, from pCMV-HA-ns311 (human) (UniProt Q99708). As to the kind of experiment: co-immunoprecipitation (anti-Flag) / anti-CtIP western blot, transfected 293T cells (FIG. 6B). (In general: In western blotting, separated proteins are transferred to a membrane and probed.)
Assay [2] has the same target. As to the kind of experiment: co-immunoprecipitation (anti-Flag) / anti-CtIP western blot, transfected 293T cells.
In assay [3] the target is T1, Flag-tagged LMO4 (full-length) (UniProt P61968).
T1 sequence (looked up): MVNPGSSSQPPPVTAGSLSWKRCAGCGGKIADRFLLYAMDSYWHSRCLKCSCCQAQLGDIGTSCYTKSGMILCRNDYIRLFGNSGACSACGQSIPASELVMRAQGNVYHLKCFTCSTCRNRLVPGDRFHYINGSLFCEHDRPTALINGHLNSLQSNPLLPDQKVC
The experiment in a line: co-immunoprecipitation (anti-Flag) / anti-HA western blot, transfected 293T cells.

Assay [4] deals with myc-tagged wild-type BRCA1 (human) (UniProt P38398). The experiment in a line: co-immunoprecipitation (anti-myc) / anti-Flag western blot, transfected 293T cells (FIG. 9A).
For assay [5] the target is unchanged. The experiment in a line: co-immunoprecipitation (anti-myc) / anti-Flag western blot, transfected 293T cells; also seen without exogenous CtIP.
For assay [6], the target named is CtIP (residues 45-897), human, from pCMV-HA-ns311 (human) (UniProt Q99708). The experiment in a line: co-immunoprecipitation / western blot, transfected 293T cells.
The target is the same in assay [7]. The experiment in a line: co-immunoprecipitation / western blot, transfected 293T cells (FIG. 6A).
Assay [8] has the same target. As to the kind of experiment: co-immunoprecipitation from transfected 293T cells (FIG. 9A, 9C).

B1: Flag-tagged first LIM domain of LMO4 (residues 1-82) (protein, UniProt P61968 1-82, looked up, not shown: small tags and cut ends)
chain: MVNPGSSSQPPPVTAGSLSWKRCAGCGGKIADRFLLYAMDSYWHSRCLKCSCCQAQLGDIGTSCYTKSGMILCRNDYIRLFG
As for B1, the binding result in assay [1] and in assay [2] was “binds” in each case.

B2: HA-CtIP (45-371) (protein, human, UniProt Q99708 45-371, looked up, not shown: small tags and cut ends)
chain: LKQERILDAQRLEEFFTKNQQLREQQKVLHETIKVLEDRLRAGLCDRCAVTEEHMRKKQQEFENIRQQNLKLITELMNERNTLQEENKKLSEQLQQKIENDQQHQAAELECEEDVIPDSPITAFSFSGVNRLRRKENPHVRYIEQTHTKLEHSVCANEMRKVSKSSTHPQHNPNENEILVADTYDQSQSPMAKAHGTSSYTPDKSSFNLATVVAETLGLGVQEESETQGPMSPLGDELYHCLEGNHKKQPFEESTRNTEDSLRFSDSTSKTPPQEELPTRVSSPVFGATSSIKSGLDLNTSLSPSLLQPGKKKHLKTLPFSNTCISR
On to B2, for which the binding result in assay [3] is “binds”.

B3: Flag-tagged LMO4 (full-length) (protein, UniProt P61968 1-165, looked up, not shown: small tags and cut ends)
chain: MVNPGSSSQPPPVTAGSLSWKRCAGCGGKIADRFLLYAMDSYWHSRCLKCSCCQAQLGDIGTSCYTKSGMILCRNDYIRLFGNSGACSACGQSIPASELVMRAQGNVYHLKCFTCSTCRNRLVPGDRFHYINGSLFCEHDRPTALINGHLNSLQSNPLLPDQKVC
Turning to B3, the binding entry in assay [4], in assay [5], in assay [6], in assay [7] and in assay [8] was “binds” throughout.

B4: HA-CtIP (371-897) (protein, human, UniProt Q99708 371-897, looked up, not shown: small tags and cut ends)
chain: RLEKTRSKSEDSALFTHHSLGSEVNKIIIQSSNKQILINKNISESLGEQNRTEYGKDSNTDKHLEPLKSLGGRTSKRKKTEEESEHEVSCPQASFDKENAFPFPMDNQFSMNGDCVMDKPLDLSDRFSAIQRQEKSQGSETSKNKFRQVTLYEALKTIPKGFSSSRKASDGNCTLPKDSPGEPCSQECIILQPLNKCSPDNKPSLQIKEENAVFKIPLRPRESLETENVLDDIKSAGSHEPIKIQTRSDHGGCELASVLQLNPCRTGKIKSLQNNQDVSFENIQWSIDPGADLSQYKMDVTVIDTKDGSQSKLGGETVDMDCTLVSETVLLKMKKQEQKGEKSSNEERKMNDSLEDMFDRTTHEEYESCLADSFSQAADEEEELSTATKKLHTHGDKQDKVKQKAFVEPYFKGDERETSLQNFPHIEVVRKKEERRKLLGHTCKECEIYYADMPAEEREKKLASCSRHRFRYIPPNTPENFWEVGFPSTQTCMERGYIKEDLDPCPRPKRRQPYNAIFSPKGKEQKT
On to B4, for which, in assay [3], the binding entry is given as “binds”.

B5: HA-CtIP (620-897) (protein, human, UniProt Q99708 620-897, looked up, not shown: small tags and cut ends)
chain: HGGCELASVLQLNPCRTGKIKSLQNNQDVSFENIQWSIDPGADLSQYKMDVTVIDTKDGSQSKLGGETVDMDCTLVSETVLLKMKKQEQKGEKSSNEERKMNDSLEDMFDRTTHEEYESCLADSFSQAADEEEELSTATKKLHTHGDKQDKVKQKAFVEPYFKGDERETSLQNFPHIEVVRKKEERRKLLGHTCKECEIYYADMPAEEREKKLASCSRHRFRYIPPNTPENFWEVGFPSTQTCMERGYIKEDLDPCPRPKRRQPYNAIFSPKGKEQKT
With B5, the binding result in assay [3] is “binds”.

These data come from patent publication US20050048528A1.
